Values from PubChem BioAssay AID1053208 (Peter MacCallum Cancer Centre, 2014).

Purpose: 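Synthetic lethal interactions between gene loss and doxorubicin in osteosarcoma cells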 (primary screen)
Cell system: mouse osteosarcoma cells, early-passage culture from an engineered mouse model of fibroblastic bone tumour
Reagent: siRNA pool against mouse genes, 40 nM
Timing: about 120 h (48 h before drug, then 72 h with drug)
Treatment: doxorubicin 100 nM for 72 h, roughly 30-40% inhibitory dose
Measurement: 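Viability read as ATP luminescence after 72 h of 100 nM doxorubicin or none, duplicate wells averaged, scaled to non-targeting siRNA, then expressed as robust z-scores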
Reading the numbers: viability z-score with doxorubicin: higher = more viable cells under doxorubicin; viability z-score without drug: higher = more viable cells with knock-down alone
Hit rule: 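Called active if knock-down leaves viability unchanged without drug (z within -2 to 2) but lowers it with doxorubicin (z at or under -2)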
Here is a random part of about 17,000 deposited reagents. 788 of them (4.7%) count as active. 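Calls rest on z-score classes alone; an extra cut-off of viability at most 70% of control was not applied to them.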 The numbers tell different reagents against one gene apart. Further read-outs or replicates are left out here.

Gm16897 (GeneID 320400) gave combined z-score class no change with or without drug; viability z-score with doxorubicin 1.01; viability z-score without drug 0.84; inactive. For Arl6ip6 (GeneID 65103), the entry reads combined z-score class no change with or without drug; viability z-score with doxorubicin 1.35; viability z-score without drug 0.51; inactive. Depletion of Krtap21-1 (GeneID 170656) #1 resulted in: combined z-score class low cell count with doxorubicin only; viability z-score with doxorubicin -2.14; viability z-score without drug -0.84; active. With knock-down of Krtap21-1 (GeneID 170656) #2, the screen gave combined z-score class no change with or without drug; viability z-score with doxorubicin 0.34; viability z-score without drug -1.85; inactive. Silencing of Olfr197 (GeneID 258477) resulted in: combined z-score class no change with or without drug; viability z-score with doxorubicin 1.12; viability z-score without drug -0.51; inactive. Cdk8 (GeneID 264064) gave combined z-score class low cell count without drug only; viability z-score with doxorubicin -0.45; viability z-score without drug -2.19; inactive.

For Gzma (GeneID 14938), the values are combined z-score class high cell count with and without drug; viability z-score with doxorubicin 2.02; viability z-score without drug 2.02; inactive. Against Ptch2 (GeneID 19207), the entry reads combined z-score class no change with or without drug; viability z-score with doxorubicin 0.56; viability z-score without drug 0.17; inactive. Against Aldh1a7 (GeneID 26358), the entry reads combined z-score class no change with or without drug; viability z-score with doxorubicin -0.67; viability z-score without drug -0.84; inactive. For Atp5me (GeneID 11958) the deposit lists combined z-score class no change with or without drug; viability z-score with doxorubicin 0.67; viability z-score without drug 0; inactive. Tlk2 (GeneID 24086) gave combined z-score class no change with or without drug; viability z-score with doxorubicin 0; viability z-score without drug 0.84; inactive. After knock-down of Cpt2 (GeneID 12896), the screen gave combined z-score class no change with or without drug; viability z-score with doxorubicin 0.79; viability z-score without drug -1.18; inactive.

With knock-down of Cacnb4 (GeneID 12298) the results were combined z-score class no change with or without drug; viability z-score with doxorubicin 0.22; viability z-score without drug 0; inactive. With knock-down of Anapc7 (GeneID 56317), the record shows combined z-score class no change with or without drug; viability z-score with doxorubicin -0.22; viability z-score without drug -0.17; inactive. Defb34 (GeneID 360211) scored combined z-score class no change with or without drug; viability z-score with doxorubicin 0.22; viability z-score without drug 1.52; inactive. With knock-down of Orc4 (GeneID 26428), the record shows combined z-score class no change with or without drug; viability z-score with doxorubicin -0.34; viability z-score without drug 1.85; inactive. After knock-down of Rasal2 (GeneID 226525) #1, the screen gave combined z-score class no change with or without drug; viability z-score with doxorubicin -0.45; viability z-score without drug -0.84; inactive. After knock-down of Rasal2 (GeneID 226525) #2 the results were combined z-score class no change with or without drug; viability z-score with doxorubicin -1.12; viability z-score without drug 0.84; inactive.

Silencing of Calcb (GeneID 116903) resulted in: combined z-score class no change with or without drug; viability z-score with doxorubicin 1.12; viability z-score without drug 0.17; inactive.

A stretch from the list above, for reference:
Aldh1a7 (GeneID 26358) — combined z-score class: no change with or without drug; viability z-score with doxorubicin: -0.67; viability z-score without drug: -0.84; call: inactive
Atp5me (GeneID 11958) — combined z-score class: no change with or without drug; viability z-score with doxorubicin: 0.67; viability z-score without drug: 0; call: inactive
